According to PubChem BioAssay AID1508600 (Functional Genomics Laboratory (NCATS/FGL), 2020):
The campaign covered roughly 53,000 sequences. About 3,700 (7%) were called active.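 Rule for the calls: active = gene knockdowns whose robust z-score for IL-1 alpha signal is at least 2 or at most -2, so actives lie on both sides; inactive = the rest.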 This is one part of the list.

assay: Components of the Cytosolic LPS Sensing Pathway: Gene Identification via Genome-wide siRNA Screen; conditions: RAW264.7 macrophages, IL-1a HTRF, actives lie on both sides, screened at 100 nM (by protocol), cells primed 5 h with Pam3CSK4 first;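 note: robust z of the log signal after scaling to non-targeting control siRNA wells of the plate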
Summary of the method: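 Three distinct siRNAs per gene were tested singly at 100 nM in RAW264.7 macrophages. Following Pam3CSK4 priming and 24 hour LipidA transfection, IL-1a secretion was read by HTRF.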

Sequence	z-score
CCCACAGAAUUUGGACAUATT against Ptcra	inactive: 1.17
GGUCGACGUGGACUUGACATT against Art4	inactive: -1.34
GCGACCCUUCCAUUGUAUUTT against Vsnl1	inactive: 0.324
AUGUGACUGGCUUUACAUUTT against Muc4	inactive: -0.506
CGACUGGAUACCAAAUUACTT against Mtrex	inactive: -1.21
GGAAAGAAGAUCGAUUACATT against Atp11c	active: 2.22
GGCCGUAGGACAGUAUACATT against Wnt5a	inactive: -1.14
GGACAAUACGGAGAAAGAUTT against Mdfic	inactive: -0.522
GGUAACACUAUCAAGUCUUTT against Txndc2	inactive: 0.0141
GGCAGCCAUAAUCACAAUGTT against Krtap4-16	inactive: 1.29
CCUUAUUUUACGGAACUGCTT against Olfr1018	active: 2.11
CGGCAGAGCCAGAUAUGAUTT against Mzf1	inactive: 0.0234
GUACCUCUUUUUGUAAUGUTT against Olfr235	inactive: -0.155
GGCUAAGGAAUGUCAAUAATT against Dnajc5g	inactive: 0.0787
GCUCGAUUCAGAAAUCUACTT against Sgce	inactive: -0.735
GGCAUCUUUCAUAAAACCGTT against Atad3aos	inactive: -0.622
CCAAAUAUUACAAACUCGGTT against Sgk1	inactive: -0.623
GGUGUUUGAGCAUAUUGGATT against Cat	inactive: -0.128
GGAAGUUUUAUAGACAAACTT against Zc2hc1c	inactive: -0.772
GCAGUAAGUCAGUGCCUCATT against Atxn1	inactive: 1.51
CGUAUAUGAUCUGCAUCAUTT against Utp4	inactive: -0.326
GCCUCUCCUGUGAAUGACATT against Erlec1	inactive: -0.699

In another format: entries from further up.

| Sequence | z-score |
| --- | --- |
| GGUCGACGUGGACUUGACATT against Art4 | inactive: -1.34 |
| GGACAAUACGGAGAAAGAUTT against Mdfic | inactive: -0.522 |
| GGCAGCCAUAAUCACAAUGTT against Krtap4-16 | inactive: 1.29 |
| CCUUAUUUUACGGAACUGCTT against Olfr1018 | active: 2.11 |
| GGCAUCUUUCAUAAAACCGTT against Atad3aos | inactive: -0.622 |
| GGUGUUUGAGCAUAUUGGATT against Cat | inactive: -0.128 |

(next part)

Sequence	z-score
GCUAUGUGUGGCUAAGUUATT against Usp9x	inactive: 0.414
CCCUUCUGUAAACACCACATT against Aldh3b3	inactive: -1.78
GGAUCUGGCCCAAUAUUGUTT against Prss12	inactive: -0.802
GUUGAGGACUUCUUGCUGGTT against Spg7	inactive: -1.87
GCACAAGGUGUUUCAUUAATT against Spaar	inactive: -1.3
GGAAAAUUACCAGAGCACCTT against Ntf3	inactive: 0.704
GGAUGAAAAAUACUGGUGUTT against Ugt8a	inactive: 0.356
GGCAAACGAGAAGAAGGAGTT against Serf2	inactive: -1.78
GGAAGAAGAUAAAGAGAAATT against Gtf2a1	inactive: 1.09
CCGAUGGUCGCACUUCUUATT against Olfr560	inactive: -1.45
GCUAAAAUUAGAGUGUCUGTT against Gtf2h2	inactive: -0.278
GGACUGUAUGUGGAAUGGCTT against Bmyc	inactive: -0.46
CCAUUGAGGGAAAUAAACUTT against Fabp2	inactive: -1.64
GGCCAAAUUUUCCUUCCAATT against Casd1	inactive: 0.744
GGAUUUAUAUCUGAAGUCUTT against Bach1	inactive: 0.248
ACGUGGAAUCUGCUGUAAUTT against Tcaim	inactive: 0.106
GGCUGCCUGUGCUAAAAUGTT against Rbm15b	inactive: -0.153
GCCUAUUGUAGUGUUACAUTT against Cyp2c67	inactive: -0.887
GCCAAGUAUUUUAAUGCAATT against Fuca2	inactive: -0.611
GGCUGCUCCACCCUAUAAUTT against Sugt1	inactive: 0.135
GGGUUUCAGUCUUCUUAUCTT against Olfr556	inactive: -0.891
GGUGUCGAGAAGCCUCAAATT against Arhgap24	inactive: -0.617

Sequence	z-score
GCCGUUCACUUUUCAGUAUTT against Slc35b3	inactive: 0.742
GCCAAAUGAGUCAGAUACUTT against Ak3	inactive: -0.402
GCUGAAACUAACAUUUGAUTT against Anxa3	inactive: 0.146
GGUUGGCUUCAAAAAUAUGTT against Psmb1	inactive: -1.04
GGUUGACUUCAAUAGUUCUTT against Krtap4-7	inactive: 0.57
GGUGUAUGAGGUGCUGCUATT against Ushbp1	inactive: 1.06
GGCCACUGGCAAUGAAAAATT against Gata5	inactive: -0.203
GAUCACACUGAAAUCAUCATT against Nudt11	inactive: -1.71
GGGACUCACAUUUAAACAATT against Trmt10a	inactive: -0.12
GGAAGCAUGCAAUGAUAUUTT against 4933431E20Rik	active: -2.31
GGGAGCCAAACAAAAUUGCTT against Bet1	inactive: -1.14
GUCAUCAAACUAGGUGCUGTT against Olfr584	active: -2.22
GGCCAGUUUAUGGGAUUUUTT against Mis18a	inactive: 0.14
CGACCGUUUUAAAUCAUAATT against C5ar1	inactive: -0.745
GGAAGUGUAAAGAGUUUAUTT against Vat1l	inactive: 0.709
GGCUGUUGACAUUUUACAATT against Heatr1	inactive: 0.499
GGCAGAAUUCUCAGAGCUUTT against Syn2	inactive: -0.282
CUCUGUACUUGGGCAGGAATT against Cyp2c65	active: 2.9
CCACGGAGACAACUUAGUATT against Scfd2	inactive: 0.568
GGCAGAUACUGAUUUUCCGTT against Mcam	inactive: -1.07
GGAAAAACUGGUCUAUCAATT against Polr3f	inactive: 1.47
GGAGUGGCCAUUAAAUUUATT against Slc17a8	active: 2.75

Sequence	z-score
UUCUAAUUGUCACUUGGUGTT against Olfr1474	inactive: -0.133
GGUGACGGCUACACUUUUCTT against Grk3	inactive: -1.64
GGUAAUGUUAGCAGAACAATT against Ifih1	inactive: 0.825
CCAGUAUUCCUGAAAAUGATT against Tfg	inactive: -1.81
GGUGUUGUGAGUGAAGAGGTT against Elmod3	inactive: 0.252
GCUACCAAAGGAAUUUUGATT against Cul4a	inactive: 0.627
GGAGAUGGAAUGAAGUAUUTT against Fbxl21	inactive: 0.344
GGAGGACAGGAAAACAGAATT against H2-Ke6	inactive: -1.36
GAAAAAUACCCUGGCACUGTT against Olfr823	inactive: -0.349
GGAGAAGUAUGACAGAAUUTT against Ano9	inactive: 0.0361
CCGAAUCUGUCGUAUCACUTT against Dvl2	inactive: -0.414
GGAUGUUGGUCUCACAUCGTT against Bmpr2	inactive: -0.605
GGUUCUAAAUCAGAAGUGCTT against Tyw5	active: -2.08
GGAGUGAGAUUGUUAACAUTT against Ank1	inactive: 0.825
CCUAUAGUCUCUGUCAUUUTT against St6galnac5	inactive: -0.0318
GGUGCUUCUGGGAAACUUCTT against Rbm25	inactive: -1.12
CCCUGUGGGCCUUUAGUAUTT against Xlr4c	inactive: -1.1
GGUUGCGAUGAGGAGACUATT against Olfr1318	inactive: -0.0867
GGGCUGAAGUGAAACCAGATT against D930048N14Rik	inactive: 0.415
GGUUAUGAAGGUGUAUACUTT against Notch1	inactive: 0.474
GGACUCCGUCAUAUACGAATT against Olfr1102	inactive: -0.187
GCCUGGACACCAUACCAAUTT against Plxdc2	inactive: 1.02

Sequence	z-score
CGCUCUCAAGGUAUAGUCCTT against Cyp2d22	inactive: -0.183
GGAUGUGAGUUAAAAUCUUTT against 9630013D21Rik	inactive: 0.541
GGAGUUGUGGGAAGAAGAATT against Paip2	inactive: -1.25
GGUAUUCUUAGCACACAUGTT against Vmn1r225	inactive: 0.496
GACCUACCAGAUGAAGGUCTT against Vmn1r28	inactive: 0.29
CGUUUGACACUUUUGCCUUTT against Mid1	inactive: 1.09
GGUUCUCUACAAAGUAAGUTT against Slc35e1	inactive: -0.0459
GGUGGAAUUCUCUUCAACUTT against Mbtps1	inactive: -0.2
GCAGCCUUGUUUCAGUUCUTT against Fam43a	inactive: 0.765
GGAUAUGUACAGGAGCUAUTT against Ankrd13a	inactive: 1.48
GGCACAGAAUAUCCACCACTT against Olfr283	inactive: -1.01
GGUUGUAAGGAACUCUUGGTT against Slc22a29	inactive: -0.628
CCGACACCUGUCAAUUCUGTT against Tcof1	inactive: -0.697
GGAGCUCAAACAGGAGAACTT against Lhfpl4	inactive: 0.383
GCAGUAUGGGACUAUGCUUTT against Cp	inactive: -0.0969
GUGGCAGCACGACCUAUUCTT against Alyref2	inactive: -0.175
CCCUGAAACCUCGGUGUUUTT against Vmac	inactive: 1.34
GGAAAAGAGCCUCACAGACTT against Crispld1	inactive: 0.131
